Results: the supplement of paper PMC10849652
The other results are listed elsewhere or left out.

The chains behind the UniProt entries cited, without tags or fusion partners. Where a name states a change or a piece, a line headed by the entry shows the natural chain unless it says otherwise.
UniProt Q9BZM1: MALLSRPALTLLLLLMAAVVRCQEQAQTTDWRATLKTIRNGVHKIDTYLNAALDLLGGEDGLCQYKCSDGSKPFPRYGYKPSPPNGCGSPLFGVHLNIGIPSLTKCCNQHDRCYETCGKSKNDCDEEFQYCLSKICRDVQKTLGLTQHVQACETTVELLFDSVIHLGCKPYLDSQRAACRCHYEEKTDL
UniProt Q13526, whole entry, looked up: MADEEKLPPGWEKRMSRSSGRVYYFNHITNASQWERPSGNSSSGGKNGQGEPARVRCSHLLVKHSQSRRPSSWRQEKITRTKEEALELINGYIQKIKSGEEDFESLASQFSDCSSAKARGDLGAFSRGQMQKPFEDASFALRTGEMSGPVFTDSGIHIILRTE
UniProt Q5H8A4: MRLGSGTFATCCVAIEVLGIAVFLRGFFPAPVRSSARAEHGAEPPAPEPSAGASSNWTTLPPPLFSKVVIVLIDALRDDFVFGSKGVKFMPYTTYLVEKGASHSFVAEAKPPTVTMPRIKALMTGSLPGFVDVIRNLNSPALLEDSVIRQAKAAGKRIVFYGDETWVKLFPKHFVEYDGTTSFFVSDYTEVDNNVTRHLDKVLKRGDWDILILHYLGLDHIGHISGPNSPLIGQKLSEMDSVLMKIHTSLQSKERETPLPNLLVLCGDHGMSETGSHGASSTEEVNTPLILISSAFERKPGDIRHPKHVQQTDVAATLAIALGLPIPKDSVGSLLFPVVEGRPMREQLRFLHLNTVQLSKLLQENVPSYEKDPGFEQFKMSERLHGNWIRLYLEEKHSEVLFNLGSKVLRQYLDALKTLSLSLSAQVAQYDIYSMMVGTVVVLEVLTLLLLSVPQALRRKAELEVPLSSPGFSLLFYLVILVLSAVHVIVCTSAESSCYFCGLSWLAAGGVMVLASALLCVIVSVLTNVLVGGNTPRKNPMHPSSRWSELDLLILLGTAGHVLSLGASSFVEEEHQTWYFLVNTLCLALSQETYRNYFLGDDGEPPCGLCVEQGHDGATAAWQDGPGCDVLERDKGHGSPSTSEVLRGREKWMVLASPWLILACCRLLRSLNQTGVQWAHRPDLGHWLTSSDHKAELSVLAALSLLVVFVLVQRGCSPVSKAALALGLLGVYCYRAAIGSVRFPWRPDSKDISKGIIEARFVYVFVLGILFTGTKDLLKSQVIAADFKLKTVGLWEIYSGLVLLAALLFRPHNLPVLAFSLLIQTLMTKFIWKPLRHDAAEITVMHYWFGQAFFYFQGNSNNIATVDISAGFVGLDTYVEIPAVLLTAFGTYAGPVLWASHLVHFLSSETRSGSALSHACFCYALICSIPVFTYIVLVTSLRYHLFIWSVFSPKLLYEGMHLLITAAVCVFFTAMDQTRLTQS
UniProt O95427: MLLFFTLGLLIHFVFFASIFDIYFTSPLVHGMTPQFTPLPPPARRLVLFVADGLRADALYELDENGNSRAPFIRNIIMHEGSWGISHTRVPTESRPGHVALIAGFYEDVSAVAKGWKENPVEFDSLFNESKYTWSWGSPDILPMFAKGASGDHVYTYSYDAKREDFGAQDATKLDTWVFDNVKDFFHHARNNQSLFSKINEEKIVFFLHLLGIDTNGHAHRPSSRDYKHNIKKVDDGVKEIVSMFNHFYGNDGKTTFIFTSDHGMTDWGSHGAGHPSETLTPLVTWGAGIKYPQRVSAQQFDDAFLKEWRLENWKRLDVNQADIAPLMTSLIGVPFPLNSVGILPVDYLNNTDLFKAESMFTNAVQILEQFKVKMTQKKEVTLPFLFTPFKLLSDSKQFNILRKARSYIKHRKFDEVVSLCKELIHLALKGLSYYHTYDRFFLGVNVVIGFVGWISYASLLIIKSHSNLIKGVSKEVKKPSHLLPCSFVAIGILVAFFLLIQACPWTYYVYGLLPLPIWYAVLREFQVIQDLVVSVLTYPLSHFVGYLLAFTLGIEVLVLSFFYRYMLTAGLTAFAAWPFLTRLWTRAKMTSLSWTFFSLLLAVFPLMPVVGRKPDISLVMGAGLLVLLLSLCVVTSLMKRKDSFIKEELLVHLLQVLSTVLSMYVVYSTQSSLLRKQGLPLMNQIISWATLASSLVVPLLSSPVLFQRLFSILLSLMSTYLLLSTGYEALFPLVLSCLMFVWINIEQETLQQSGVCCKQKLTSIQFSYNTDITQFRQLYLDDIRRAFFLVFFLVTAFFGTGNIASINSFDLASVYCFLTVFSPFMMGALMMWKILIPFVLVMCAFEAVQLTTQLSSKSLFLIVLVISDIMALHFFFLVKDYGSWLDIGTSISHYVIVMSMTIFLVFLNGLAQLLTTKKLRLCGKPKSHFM
UniProt Q8NEB9, whole entry, looked up: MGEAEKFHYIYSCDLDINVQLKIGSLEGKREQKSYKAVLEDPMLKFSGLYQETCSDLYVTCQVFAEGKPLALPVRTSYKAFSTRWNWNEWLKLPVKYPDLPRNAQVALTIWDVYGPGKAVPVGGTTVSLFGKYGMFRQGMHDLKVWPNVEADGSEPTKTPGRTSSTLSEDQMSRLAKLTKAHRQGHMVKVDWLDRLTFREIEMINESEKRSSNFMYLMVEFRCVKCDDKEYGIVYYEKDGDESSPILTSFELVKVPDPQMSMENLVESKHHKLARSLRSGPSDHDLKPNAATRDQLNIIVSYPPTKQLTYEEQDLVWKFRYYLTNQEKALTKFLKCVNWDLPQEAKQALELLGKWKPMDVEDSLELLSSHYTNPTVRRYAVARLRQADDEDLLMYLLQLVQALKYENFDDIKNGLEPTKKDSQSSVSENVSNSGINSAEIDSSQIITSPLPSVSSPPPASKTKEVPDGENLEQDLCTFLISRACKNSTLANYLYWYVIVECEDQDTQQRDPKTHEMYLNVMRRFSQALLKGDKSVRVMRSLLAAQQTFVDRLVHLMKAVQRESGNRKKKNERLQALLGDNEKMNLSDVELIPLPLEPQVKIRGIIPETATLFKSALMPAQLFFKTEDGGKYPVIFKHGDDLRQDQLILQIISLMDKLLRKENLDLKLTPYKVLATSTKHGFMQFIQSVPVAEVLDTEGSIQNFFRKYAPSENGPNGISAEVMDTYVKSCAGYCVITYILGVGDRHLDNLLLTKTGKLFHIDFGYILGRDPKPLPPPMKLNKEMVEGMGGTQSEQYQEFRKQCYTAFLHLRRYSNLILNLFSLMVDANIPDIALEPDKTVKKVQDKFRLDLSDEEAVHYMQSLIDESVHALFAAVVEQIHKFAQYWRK
UniProt P53609, whole entry, looked up: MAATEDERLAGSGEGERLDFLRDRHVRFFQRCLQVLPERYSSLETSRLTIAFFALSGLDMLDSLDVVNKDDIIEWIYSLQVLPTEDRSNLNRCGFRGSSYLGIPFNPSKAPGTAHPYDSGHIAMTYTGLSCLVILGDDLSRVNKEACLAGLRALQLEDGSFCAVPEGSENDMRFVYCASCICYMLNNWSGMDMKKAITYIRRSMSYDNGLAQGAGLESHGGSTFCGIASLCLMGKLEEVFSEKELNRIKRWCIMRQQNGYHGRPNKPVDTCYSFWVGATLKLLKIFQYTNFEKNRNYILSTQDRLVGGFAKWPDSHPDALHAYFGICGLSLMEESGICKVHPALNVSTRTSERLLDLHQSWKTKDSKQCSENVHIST
PIGBOS1, A0A0B4J2F0, UniProt A0A0B4J2F0, whole entry, looked up: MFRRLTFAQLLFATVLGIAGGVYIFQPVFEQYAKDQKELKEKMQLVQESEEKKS
UniProt Q9BTU6: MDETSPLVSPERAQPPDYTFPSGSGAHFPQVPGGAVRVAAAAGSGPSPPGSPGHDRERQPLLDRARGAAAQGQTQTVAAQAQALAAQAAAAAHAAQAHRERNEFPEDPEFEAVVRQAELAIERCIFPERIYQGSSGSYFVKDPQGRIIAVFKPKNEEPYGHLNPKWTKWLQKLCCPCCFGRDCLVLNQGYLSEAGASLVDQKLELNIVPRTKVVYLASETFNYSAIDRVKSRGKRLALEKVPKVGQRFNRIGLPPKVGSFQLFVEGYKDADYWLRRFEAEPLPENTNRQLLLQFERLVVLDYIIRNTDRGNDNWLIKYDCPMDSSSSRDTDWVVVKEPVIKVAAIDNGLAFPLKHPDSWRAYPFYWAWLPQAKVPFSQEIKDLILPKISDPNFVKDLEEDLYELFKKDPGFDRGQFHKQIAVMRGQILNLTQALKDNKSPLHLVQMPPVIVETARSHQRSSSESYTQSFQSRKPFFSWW
UniProt P48739: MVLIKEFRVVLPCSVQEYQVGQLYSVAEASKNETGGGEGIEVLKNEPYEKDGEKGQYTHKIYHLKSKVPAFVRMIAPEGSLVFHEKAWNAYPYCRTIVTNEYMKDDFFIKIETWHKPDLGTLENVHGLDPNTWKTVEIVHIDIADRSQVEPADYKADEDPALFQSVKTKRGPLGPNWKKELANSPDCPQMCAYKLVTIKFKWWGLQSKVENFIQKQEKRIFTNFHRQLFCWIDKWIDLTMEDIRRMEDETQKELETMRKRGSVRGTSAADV
UniProt O00628: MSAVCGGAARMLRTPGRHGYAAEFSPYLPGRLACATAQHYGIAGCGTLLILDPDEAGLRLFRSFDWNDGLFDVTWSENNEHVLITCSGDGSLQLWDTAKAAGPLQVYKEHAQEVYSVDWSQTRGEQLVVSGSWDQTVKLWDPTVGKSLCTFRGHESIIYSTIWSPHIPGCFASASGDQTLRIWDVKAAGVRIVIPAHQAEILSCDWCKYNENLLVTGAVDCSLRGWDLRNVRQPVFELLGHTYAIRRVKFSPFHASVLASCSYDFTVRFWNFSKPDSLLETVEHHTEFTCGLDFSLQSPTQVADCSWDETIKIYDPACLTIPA
UniProt P17858: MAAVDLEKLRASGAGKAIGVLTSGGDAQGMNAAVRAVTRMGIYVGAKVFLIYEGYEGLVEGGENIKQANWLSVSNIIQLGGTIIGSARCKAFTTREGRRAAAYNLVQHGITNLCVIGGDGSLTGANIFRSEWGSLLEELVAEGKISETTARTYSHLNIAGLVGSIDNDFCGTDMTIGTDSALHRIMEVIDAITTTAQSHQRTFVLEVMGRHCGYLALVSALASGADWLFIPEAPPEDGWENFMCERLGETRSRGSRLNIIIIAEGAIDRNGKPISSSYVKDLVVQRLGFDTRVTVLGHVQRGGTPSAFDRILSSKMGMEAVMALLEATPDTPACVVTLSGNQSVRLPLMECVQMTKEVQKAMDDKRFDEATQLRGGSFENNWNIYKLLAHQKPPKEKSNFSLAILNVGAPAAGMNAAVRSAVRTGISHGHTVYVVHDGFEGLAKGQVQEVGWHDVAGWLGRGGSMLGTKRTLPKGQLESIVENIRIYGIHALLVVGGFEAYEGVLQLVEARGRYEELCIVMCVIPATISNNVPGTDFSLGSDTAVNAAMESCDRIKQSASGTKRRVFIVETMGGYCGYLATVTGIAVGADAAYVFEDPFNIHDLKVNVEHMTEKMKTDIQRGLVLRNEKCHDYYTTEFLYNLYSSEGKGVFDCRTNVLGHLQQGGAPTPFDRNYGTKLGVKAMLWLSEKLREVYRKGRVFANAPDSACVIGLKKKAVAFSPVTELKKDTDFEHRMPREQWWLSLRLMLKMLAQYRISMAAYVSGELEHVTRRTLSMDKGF
UniProt Q9NXJ5: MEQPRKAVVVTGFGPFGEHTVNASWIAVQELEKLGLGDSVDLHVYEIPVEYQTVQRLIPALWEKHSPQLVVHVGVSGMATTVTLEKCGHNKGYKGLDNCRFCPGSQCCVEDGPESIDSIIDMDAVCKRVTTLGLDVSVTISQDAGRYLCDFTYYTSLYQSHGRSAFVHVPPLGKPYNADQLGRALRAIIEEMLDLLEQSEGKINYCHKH
UniProt P78356: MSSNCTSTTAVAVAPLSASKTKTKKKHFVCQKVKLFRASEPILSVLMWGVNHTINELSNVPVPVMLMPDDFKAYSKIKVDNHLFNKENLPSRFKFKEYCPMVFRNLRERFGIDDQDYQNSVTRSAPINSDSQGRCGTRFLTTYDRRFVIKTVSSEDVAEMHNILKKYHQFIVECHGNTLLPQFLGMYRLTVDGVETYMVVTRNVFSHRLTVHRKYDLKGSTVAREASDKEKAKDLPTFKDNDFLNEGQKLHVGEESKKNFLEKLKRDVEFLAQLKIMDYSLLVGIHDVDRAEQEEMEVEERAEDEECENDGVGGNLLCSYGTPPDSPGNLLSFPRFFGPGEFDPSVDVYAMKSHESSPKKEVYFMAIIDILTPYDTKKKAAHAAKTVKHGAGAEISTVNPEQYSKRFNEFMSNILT
UniProt Q96BK5: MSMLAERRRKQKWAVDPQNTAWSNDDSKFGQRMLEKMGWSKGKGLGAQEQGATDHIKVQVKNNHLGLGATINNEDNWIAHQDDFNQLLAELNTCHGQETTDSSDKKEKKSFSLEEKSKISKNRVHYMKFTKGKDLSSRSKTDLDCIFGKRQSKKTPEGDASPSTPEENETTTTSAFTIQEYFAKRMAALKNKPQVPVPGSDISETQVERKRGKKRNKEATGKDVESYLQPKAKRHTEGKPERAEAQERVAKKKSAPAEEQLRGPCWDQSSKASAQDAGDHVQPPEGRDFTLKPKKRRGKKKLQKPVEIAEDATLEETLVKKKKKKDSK

Tests used:
Test in all cases: log2 fold change, soluble protein after heating vs DMSO (PISA); higher = thermal stabilisation; K562 cells, 10 uM, 30 min; active = over 0.2 and 3.5 SD of the protein, either way, in both replicates (recomputed)
[1] = compound: NC(=O)Nc1cc(-c2cccc(F)c2)sc1C(=O)N[C@H]1CCCNC1
Procedure, shortened: (§1)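 Soluble protein was quantified by TMTpro 16plex LC-MS/MS after channel sums were equalised. It was obtained as the supernatant after 21,000xg for 90 min from pooled aliquots of K562 cells (2×10^6 cells/mL, 10 μM compound, 30 min) heated for 3 min across 48°C-58°C and extracted in PBS with 0.5% NP-40 at 4°C. Thermal stability values are relative to control samples and come from duplicates. They are given as log2 fold changes.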

[2] = compound: NC(=O)c1cnc(N[C@@H]2CCCC[C@@H]2N)nc1Nc1cccc(-n2nccn2)c1
Procedure, shortened: as §1

[3] = compound: NC1(c2ccc(-c3nc4ccn5c(=O)[nH]nc5c4cc3-c3ccccc3)cc2)CCC1
Procedure, shortened: as §1

[4] = compound: NCC(=O)Nc1ccc(-n2nc(C(F)(F)F)cc2-c2ccc3c(ccc4ccccc43)c2)cc1
Procedure, shortened: as §1

entinostat = compound: Nc1ccccc1NC(=O)c1ccc(CNC(=O)OCc2cccnc2)cc1 [entinostat]
Procedure, shortened: as §1

vorinostat = compound: O=C(CCCCCCC(=O)Nc1ccccc1)NO [vorinostat]
Procedure, shortened: as §1

citarinostat = compound: O=C(CCCCCCNC(=O)c1cnc(N(c2ccccc2)c2ccccc2Cl)nc1)NO [citarinostat]
Procedure, shortened: as §1

silmitasertib = compound: O=C(O)c1ccc2c(c1)nc(Nc1cccc(Cl)c1)c1ccncc12 [silmitasertib]
Procedure, shortened: as §1

[5] = compound: O=C1NC(=O)C(c2cnc3ccccn23)=C1c1cn2c3c(cc(F)cc13)CN(C(=O)N1CCCCC1)CC2
Procedure, shortened: as §1

[6] = compound: c1cc(OCCN2CCCCC2)cc(-c2n[nH]c3ccc(-c4nnc[nH]4)cc23)c1
Procedure, shortened: as §1

Row | Target | log2 fold change [1] | log2 fold change [2] | log2 fold change [3] | log2 fold change [4] | log2 fold change (entinostat) | log2 fold change (vorinostat) | log2 fold change (citarinostat) | log2 fold change (silmitasertib) | log2 fold change [5] | log2 fold change [6]
1 | PKN2 (UniProt Q16513) | inactive: -0.055 | inactive: -0.134 | inactive: -0.051 | inactive: -0.021 | inactive: 0.105 | inactive: 0.023 | inactive: 0.073 | inactive: 0.01 | inactive: -0.008 | inactive: -0.086
2 | PHKA2 (UniProt P46019) | inactive: 0.013 | inactive: -0.112 | inactive: -0.157 | inactive: 0.005 | inactive: 0.13 | inactive: 0.04 | inactive: -0.046 | inactive: 0.001 | inactive: -0.013 | inactive: 0.065
3 | PLA2G12A (UniProt Q9BZM1) | inactive: -0.014 | inactive: -0.149 | inactive: -0.154 |  | inactive: 0.165 | inactive: -0.004 | inactive: 0.188 | inactive: 0.114 | inactive: -0.137 | inactive: -0.142
4 | PIP4P2 (UniProt Q8N4L2) | inactive: 0.02 | inactive: -0.152 | active: -0.373 | inactive: -0.024 | inactive: 0.007 | inactive: 0.042 | inactive: -0.02 | inactive: 0.074 | inactive: 0.082 | inactive: 0.051
5 | PEX3 (UniProt P56589) | inactive: 0.025 | inactive: 0.104 | inactive: -0.094 | inactive: 0.082 | inactive: -0.229 |  | inactive: 0.033 | inactive: -0.025 | inactive: 0.115 | inactive: -0.114
6 | PIN1 (UniProt Q13526) | inactive: -0.018 | inactive: 0.004 | inactive: -0.025 | inactive: 0.031 | inactive: 0.042 | inactive: -0.042 | inactive: 0.106 | inactive: 0.037 | inactive: -0.08 | inactive: 0.09
7 | PHF10 (UniProt Q8WUB8) | inactive: 0.025 | inactive: -0.222 |  | inactive: 0.013 | inactive: -0.002 | inactive: 0.121 | inactive: 0.032 |  | inactive: -0.093 | inactive: -0.118
8 | PICALM (UniProt H0YEY8) | inactive: -0.08 | inactive: -0.181 | inactive: -0.142 | inactive: -0.03 | inactive: -0.019 | inactive: 0.031 | inactive: 0.091 | inactive: 0.047 | inactive: -0.068 | inactive: 0.078
9 | PIGG (UniProt Q5H8A4) | inactive: -0.046 | inactive: -0.032 | inactive: -0.06 | inactive: 0.052 | inactive: 0.039 | inactive: -0.104 | inactive: 0.052 | inactive: 0.025 | inactive: -0.019 | inactive: 0.029
10 | PEX16 isoform 2 (UniProt Q9Y5Y5) | inactive: 0.061 | inactive: -0.052 | inactive: -0.171 | inactive: -0.031 | inactive: 0.022 | inactive: 0.115 | inactive: 0.081 | inactive: -0.025 | inactive: 0.033 | inactive: -0.051
11 | PHF19 isoform 2 (UniProt Q5T6S3) | inactive: -0.006 |  | inactive: -0.235 | inactive: -0.008 | inactive: 0.017 | inactive: -0.122 | inactive: 0.054 | inactive: 0.225 | inactive: -0.011 | inactive: 0.004
12 | PIGN (UniProt O95427) | inactive: 0.074 | inactive: -0.053 | inactive: -0.012 |  | inactive: 0.003 | inactive: 0.004 | inactive: 0.124 | inactive: -0.014 | inactive: -0.072 | inactive: -0.322
13 | PIK3C3 (UniProt Q8NEB9) | inactive: 0.068 | inactive: 0.117 | inactive: -0.018 | inactive: -0.015 | inactive: -0.03 | inactive: -0.038 | inactive: -0.038 | inactive: 0.051 | inactive: 0.078 | inactive: -0.041
14 | PGGT1B (UniProt P53609) | inactive: -0.048 | inactive: -0.014 | inactive: -0.062 | inactive: -0.021 | inactive: -0.047 | inactive: -0.046 | inactive: 0.038 | inactive: 0.021 | inactive: 0.02 | inactive: -0.042
15 | PGK1 (UniProt P00558) | inactive: -0.031 | inactive: -0.029 | inactive: -0.03 | inactive: -0.028 | inactive: -0.021 | inactive: -0.016 | inactive: 0.004 | inactive: -0.049 | inactive: -0.042 | inactive: -0.005
16 | PIGBOS1, A0A0B4J2F0 | inactive: -0.059 | inactive: -0.076 | inactive: -0.01 | inactive: 0.061 | inactive: 0.066 | inactive: -0.117 | inactive: 0.024 | inactive: -0.032 | inactive: -0.025 | inactive: 0.072
17 | PI4K2A (UniProt Q9BTU6) | inactive: 0.033 | inactive: 0.204 | inactive: -0.152 | inactive: -0.05 | inactive: -0.013 | inactive: 0.039 | inactive: 0.072 | inactive: -0.012 | inactive: -0.05 | inactive: 0.003

A different layout for some results above.
Row,Target,log2 fold change [1],log2 fold change [2],log2 fold change [3],log2 fold change [4],log2 fold change (entinostat),log2 fold change (vorinostat),log2 fold change (citarinostat),log2 fold change (silmitasertib),log2 fold change [5],log2 fold change [6]
5,PEX3 (UniProt P56589),inactive: 0.025,inactive: 0.104,inactive: -0.094,inactive: 0.082,inactive: -0.229,,inactive: 0.033,inactive: -0.025,inactive: 0.115,inactive: -0.114
12,PIGN (UniProt O95427),inactive: 0.074,inactive: -0.053,inactive: -0.012,,inactive: 0.003,inactive: 0.004,inactive: 0.124,inactive: -0.014,inactive: -0.072,inactive: -0.322

Further records.

Row | Target | log2 fold change [1] | log2 fold change [2] | log2 fold change [3] | log2 fold change [4] | log2 fold change (entinostat) | log2 fold change (vorinostat) | log2 fold change (citarinostat) | log2 fold change (silmitasertib) | log2 fold change [5] | log2 fold change [6]
18 | PLD3 (UniProt Q8IV08) | inactive: 0.008 | inactive: -0.005 | inactive: -0.177 | inactive: -0.051 | inactive: 0.009 | inactive: 0.022 | inactive: 0.034 | inactive: 0.006 | inactive: 0.024 | inactive: 0.067
19 | PITPNB isoform 3 (UniProt P48739) | inactive: -0.029 | inactive: -0.005 | inactive: 0.051 | inactive: -0.021 | inactive: -0.038 | inactive: -0.033 | inactive: 0.035 | inactive: -0.016 | inactive: 0.004 | inactive: -0.035
20 | PFN1 (UniProt I3L3D5) | inactive: -0.225 | inactive: -0.3 | inactive: -0.026 |  | inactive: -0.137 | inactive: -0.204 | inactive: -0.164 | inactive: 0.105 | inactive: -0.286 | inactive: -0.135
21 | PIGQ (UniProt Q9BRB3) | inactive: 0.037 | inactive: 0.132 | inactive: -0.298 | inactive: 0.042 | inactive: -0.065 | inactive: 0.108 | inactive: -0.09 | inactive: 0.101 | inactive: -0.439 | inactive: 0.146
22 | PEX7 (UniProt O00628) | inactive: -0.017 | inactive: -0.031 | inactive: -0.022 | inactive: -0.03 | inactive: -0.077 | inactive: 0.013 | inactive: 0.074 | inactive: -0.017 | inactive: -0.051 | inactive: 0.042
23 | PFKL isoform 2 (UniProt P17858) | inactive: 0.009 | inactive: 0.01 | inactive: 0.007 | inactive: 0.009 | inactive: -0.027 | inactive: -0.008 | inactive: 0.038 | inactive: -0.014 | inactive: -0.039 | inactive: -0.046
24 | PI4KB (UniProt Q9UBF8) | inactive: -0.025 | inactive: -0.042 | inactive: -0.137 | inactive: -0.068 | inactive: 0.044 | inactive: 0.037 | inactive: 0.004 | inactive: -0.058 | inactive: -0.037 | inactive: -0.062
25 | PGM2L1 (UniProt Q6PCE3) | inactive: -0.003 | inactive: 0 | inactive: -0.071 | inactive: 0.004 | inactive: -0.029 | inactive: 0.002 | inactive: -0.012 | inactive: 0.011 | inactive: -0.045 | inactive: -0.001
26 | PLA2G15 (UniProt Q8NCC3) | inactive: 0.06 | inactive: -0.042 | inactive: -0.023 | inactive: 0.001 | inactive: 0.056 | inactive: 0.073 | active: 0.279 | inactive: 0.076 | inactive: -0.074 | inactive: -0.008
27 | PGPEP1 (UniProt Q9NXJ5) | inactive: 0.017 | inactive: -0.048 | inactive: -0.275 | inactive: 0.2 | inactive: -0.029 |  | inactive: -0.12 | inactive: 0.115 | inactive: 0.067 | inactive: -0.263
28 | PIK3CG (UniProt P48736) | inactive: 0.13 | inactive: -0.819 |  |  | inactive: -0.049 |  | inactive: 0.072 |  | inactive: 0.079 | inactive: -0.202
29 | PIP4K2B (UniProt P78356) | inactive: 0.06 | inactive: 0.083 | inactive: -0.053 | inactive: 0.118 | inactive: 0.096 | inactive: 0.053 | inactive: -0.009 | inactive: 0.202 | inactive: 0.044 | inactive: 0.069
30 | PHKA1 (UniProt P46020) | inactive: 0.03 | inactive: 0.046 | inactive: -0.202 |  | inactive: -0.005 | inactive: 0.013 | inactive: 0.128 | inactive: 0.004 | inactive: 0.027 | inactive: -0.068
31 | PFAS (UniProt O15067) | inactive: 0.06 | inactive: -0.075 | inactive: -0.012 | inactive: -0.054 | inactive: 0.134 | inactive: 0.042 | inactive: 0.049 | inactive: -0.119 | inactive: -0.052 | inactive: 0.142
32 | PIK3CD (UniProt O00329) | inactive: 0.086 | inactive: 0.014 |  | inactive: -0.047 | inactive: -0.008 |  | inactive: -0.285 |  | inactive: -0.092 | inactive: 0.143
33 | PINX1 (UniProt Q96BK5) | inactive: 0.016 | inactive: 0.185 | inactive: 0.385 | inactive: 0.246 | inactive: 0.046 | inactive: -0.151 |  | inactive: 0.384 | inactive: 0.021 | 
